Test results taken from patent EP0959894B1, “USE OF SUBSTRATE SUBTRACTION LIBRARIES TO DISTINGUISH ENZYME SPECIFICITIES” (The Scripps Research Institute, priority 1996, dated 2004).
At least one peptide structure holds a part that was inferred or is arguable (an end, a ring closure or a residue).

What was measured:
[1] = test system: u-PA; test: Kinetics of cleavage of synthetic peptides by u-PA (HPLC, Eadie-Hofstee analysis); assay type: biochemical, human; details: u-PA over t-PA selectivity of peptide cleavage
[2] = test system: t-PA; test: Kinetics of cleavage of synthetic peptides by t-PA (HPLC, Eadie-Hofstee analysis); assay type: biochemical, human; details: t-PA over u-PA selectivity of peptide cleavage

Substance	cleaved more efficiently by u-PA than by t-PA (u-PA/t-PA selectivity) [1]	cleaved more efficiently by t-PA than by u-PA [2]
Ac-GSGKS-NH2 [GSGKS]	approximately 120 times	–
Ac-FRGRK-NH2 [FRGRK]	–	approximately 74 fold
